Some compounds share one wording; it may come from a single statement.
Test: Transferability: status A reflection density at solid density area of thermal transfer image
Conditions: status A reflection density at solid density (100% dot density) area; thermal head 0.25 W/dot; three ranks
Description: The ink sheet 1 and the image-receiving material produced in the manner as above were stuck together in such a manner that the dye-donating layer could face the image-receiving layer. This was tested for printing, using a thermal head applied to the back of the dye-donating material. The output of the thermal head was 0.25 W/dot, the pulse width thereof was from 0.15 to 15 msec, and the dot density was 6 dots/mm. Thus, a yellow dye was imagewise given to the image-receiving layer of the image-receiving material, and a sharp image was recorded thereon with no transfer unevenness. The ink sheets 2 to 8 were tested for image printing, in the same manner as that for the ink sheet 1.
The status A reflection density at the solid density (100% dot density) area of each of the thus-formed images was measured, and the samples were evaluated for the transferability in three ranks. Those having a reflection density of at least 1.8 are A (very good); those having a reflection density of from 1.6 to less than 1.8 are B (good); and those having a reflection density of from 1.0 to less than 1.6 are C (acceptable).

Structure (SMILES): CC(=O)n1c(/N=N/c2c(C(C)(C)C)nn(C)c2N)nc(C#N)c1C#N [(3)]
- Transferability: A (Those having a reflection density of at least 1.8 are A (very good))

Structure (SMILES): CCN(CCOc1ccc(C2CCCCC2)cc1)c1ccc(C=C(C#N)C#N)c(C)c1 [Comparative Dye 4, reference compound]
- Transferability: A (Those having a reflection density of at least 1.8 are A (very good))

Structure (SMILES): CCCCN(CCCC)C(=O)c1ccc2c(c1)C(=O)C(c1nc3ccc(C(C)C)cc3cc1O)C2=O (stereo not shown) [Comparative Dye 5, reference compound]
- Transferability: C (those having a reflection density of from 1.0 to less than 1.6 are C (acceptable))

Structure (SMILES): CC(C)(C)c1nn(-c2ccccc2)c(N)c1/N=N/c1ccc([N+](=O)[O-])cc1 [Comparative Dye 1, reference compound]
- Transferability: B (those having a reflection density of from 1.6 to less than 1.8 are B (good))

Structure (SMILES): Cn1nc(C(C)(C)C)c(/N=N/c2nc(C#N)c(C#N)[nH]2)c1N [Comparative Dye 3, reference compound]
- Transferability: C (those having a reflection density of from 1.0 to less than 1.6 are C (acceptable))

Structure (SMILES): CCN(CC)C(=O)n1c(/N=N/c2c(C(C)(C)C)nn(C)c2N)nc(C#N)c1C#N [Compound (1)]
- Transferability: A (Those having a reflection density of at least 1.8 are A (very good))

Structure (SMILES): COC(=O)n1c(/N=N/c2c(C(C)(C)C)nn(C)c2N)nc(C#N)c1C#N [(5)]
- Transferability: A (Those having a reflection density of at least 1.8 are A (very good))

Structure (SMILES): Cn1nc(C(C)(C)C)c(/N=N/c2nc(C#N)c(C#N)n2C(=O)c2ccccc2)c1N [(4)]
- Transferability: A (Those having a reflection density of at least 1.8 are A (very good))

Structure (SMILES): CCN(CC)C(=O)n1c(/N=N/c2ccc(N(CC)CC)cc2NC(C)=O)nc(C#N)c1C#N [Comparative Dye 2, reference compound]
- Transferability: A (Those having a reflection density of at least 1.8 are A (very good))

Structure (SMILES): CN(C)C(=O)n1c(/N=N/c2c(C(C)(C)C)nn(C)c2N)nc(C#N)c1C#N [(2)]
- Transferability: A (Those having a reflection density of at least 1.8 are A (very good))
